The values that follow come from US8603949B2, “Libraries of optimized cytochrome P450 enzymes and the optimized P450 enzymes” (California Institute of Technology, priority 2003, dated 2013).

The nature of the data set: Folding by reduced CO difference spectroscopy (Soret band). It counts as physicochemical. The conditions noted are these: for Folded: reduced CO difference spectroscopy; for λ max for Soret band: reduced CO difference spectrum.

B1: Chimera 169-197M: mirror chimera of 169-197, sequences from opposite parents at every position (protein)
chain: KETSPIPQPKTFGPLGNLPLIDKDKPTLSLIKLAEEQGPIFQIHTPAGTTIVVSGHELVKEVCDEERFDKSIEGALEKVRAFSGDGLATSWTHEPNWRKAHNILMPTFSQRAMKDYHEKMVDIAVQLIQKWARLNPNEAVDVPGDMTRLTLDTIGLCGFNYRFNSYYREQPHPFITSMVRALDEAMNKLQRANPDDPAMVRTKRQFRYDIQTMFSLVDSIIAERRANGDQDEKDLLARMLNVEDPETGEKLDDENIRFQIITFLIAGHETTSGLLSFATYFLLKHPDKLKKAYEEVDRVLTDAAPTYKQVLELTYIRMILNESLRLWPTAPAFSLYPKEDTVIGGKFPITTNDRISVLIPQLHRDRDAWGKDAEEFRPERFEHQDQVPHHAYKPFGNGQRACIGMQFALHEATLVLGMILKYFTLIDHENYELDIKQTLTLKPGDFHISVQSRHQEAIHADVQAAE
modifications: Chimeric Cytochrome P450 heme group sequence from Bacillus megaterium and Bacillus subtilis
As to B1, the Folded entry is recorded as “yes” and the “λ max for Soret band” value is 449 nm.

B2: Chimera 65-256: CYP102A1 heme domain with residues 65-256 from CYP102A2 (protein)
chain: TIKEMPQPKTFGELKNLPLLNTDKPVQALMKIADELGEIFKFEAPGRVTRYLSSQRLIKEACDEERFDKSIEGALEKVRAFSGDGLATSWTHEPNWRKAHNILMPTFSQRAMKDYHEKMVDIAVQLIQKWARLNPNEAVDVPGDMTRLTLDTIGLCGFNYRFNSYYRETPHPFINSMVRALDEAMHQMQRLDVQDKLMVRTKRQFRYDIQTMFSLVDSIIAERRANGDQDEKDLLARMLNVEDPETGEKLDDENIRFQIITFLIAGHETTSGLLSFALYFLVKNPHVLQKAAEEAARVLVDPVPSYKQVKQLKYVGMVLNEALRLWPTAPAFSLYAKEDTVLGGEYPLEKGDELMVLIPQLHRDKTIWGDDVEEFRPERFENPSAIPQHAFKPFGNGQRACIGQQFALHEATLVLGMMLKHFDFEDHTNYELDIKETLTLKPEGFVVKAKSKKIPLGGIPSPST
modifications: Chimeric Cytochrome P450 heme group sequence from Bacillus megaterium and Bacillus subtilis
notes: CYP102A1 heme domain with residues 65-256 from CYP102A2
As to B2, the Folded entry is “yes” and the “λ max for Soret band” value stood at 447 nm.

B3: Chimera 43-135: CYP102A1 heme domain with residues 43-135 from CYP102A2 (protein)
chain: TIKEMPQPKTFGELKNLPLLNTDKPVQALMKIADELGEIFKFHTPAGTTIVVSGHELVKEVCDEERFDKSIEGALEKVRAFSGDGLATSWTHEPNWRKAHNILMPTFSQRAMKDYHEKMVDIAVQLIQKWARLNPDEHIEVPEDMTRLTLDTIGLCGFNYRFNSFYRDQPHPFITSMVRALDEAMNKLQRANPDDPAYDENKRQFQEDIKVMNDLVDKIIADRKASGEQSDDLLTHMLNGKDPETGEPLDDENIRYQIITFLIAGHETTSGLLSFALYFLVKNPHVLQKAAEEAARVLVDPVPSYKQVKQLKYVGMVLNEALRLWPTAPAFSLYAKEDTVLGGEYPLEKGDELMVLIPQLHRDKTIWGDDVEEFRPERFENPSAIPQHAFKPFGNGQRACIGQQFALHEATLVLGMMLKHFDFEDHTNYELDIKETLTLKPEGFVVKAKSKKIPLGGIPSPST
modifications: Chimeric Cytochrome P450 heme group sequence from Bacillus megaterium and Bacillus subtilis
notes: CYP102A1 heme domain with residues 43-135 from CYP102A2
For the molecule B3, the Folded result was “yes” and the “λ max for Soret band” value amounted to 448 nm.

B4: Chimera 118-194: CYP102A1 heme domain with residues 118-194 from CYP102A2 (protein)
chain: TIKEMPQPKTFGELKNLPLLNTDKPVQALMKIADELGEIFKFEAPGRVTRYLSSQRLIKEACDESRFDKNLSQALKFVRDFAGDGLATSWTHEKNWKKAHNILLPSFSQQAMKGYHAKMVDIAVQLIQKWARLNPNEAVDVPGDMTRLTLDTIGLCGFNYRFNSYYRETPHPFINSMVRALDEAMHQMQRLDVQDPAYDENKRQFQEDIKVMNDLVDKIIADRKASGEQSDDLLTHMLNGKDPETGEPLDDENIRYQIITFLIAGHETTSGLLSFALYFLVKNPHVLQKAAEEAARVLVDPVPSYKQVKQLKYVGMVLNEALRLWPTAPAFSLYAKEDTVLGGEYPLEKGDELMVLIPQLHRDKTIWGDDVEEFRPERFENPSAIPQHAFKPFGNGQRACIGQQFALHEATLVLGMMLKHFDFEDHTNYELDIKETLTLKPEGFVVKAKSKKIPLGGIPSPST
modifications: Chimeric Cytochrome P450 heme group sequence from Bacillus megaterium and Bacillus subtilis
notes: CYP102A1 heme domain with residues 118-194 from CYP102A2
As for B4, the Folded result is given as “yes” and the “λ max for Soret band” value was 449 nm.

B5: Chimera 70-299: CYP102A1 heme domain with residues 70-299 from CYP102A2 (protein)
chain: TIKEMPQPKTFGELKNLPLLNTDKPVQALMKIADELGEIFKFEAPGRVTRYLSSQRLIKEACDESRFDKSIEGALEKVRAFSGDGLATSWTHEPNWRKAHNILMPTFSQRAMKDYHEKMVDIAVQLIQKWARLNPNEAVDVPGDMTRLTLDTIGLCGFNYRFNSYYRETPHPFINSMVRALDEAMHQMQRLDVQDKLMVRTKRQFRYDIQTMFSLVDSIIAERRANGDQDEKDLLARMLNVEDPETGEKLDDENIRFQIITFLIAGHETTSGLLSFATYFLLKHPDKLKKAYEEVDRVLTDPVPSYKQVKQLKYVGMVLNEALRLWPTAPAFSLYAKEDTVLGGEYPLEKGDELMVLIPQLHRDKTIWGDDVEEFRPERFENPSAIPQHAFKPFGNGQRACIGQQFALHEATLVLGMMLKHFDFEDHTNYELDIKETLTLKPEGFVVKAKSKKIPLGGIPSPST
modifications: Chimeric Cytochrome P450 heme group sequence from Bacillus megaterium and Bacillus subtilis
notes: CYP102A1 heme domain with residues 70-299 from CYP102A2
B5: the Folded result is reported as “yes” and the “λ max for Soret band” value was 448 nm.

B6: Chimera 46-73: CYP102A1 heme domain with residues 46-73 from CYP102A2 (protein)
chain: TIKEMPQPKTFGELKNLPLLNTDKPVQALMKIADELGEIFKFEAPAGTTIVVSGHELVKEVCDEERFDKSIEGALKFVRDFAGDGLATSWTHEKNWKKAHNILLPSFSQQAMKGYHAMMVDIAVQLVQKWERLNADEHIEVPEDMTRLTLDTIGLCGFNYRFNSFYRDQPHPFITSMVRALDEAMNKLQRANPDDPAYDENKRQFQEDIKVMNDLVDKIIADRKASGEQSDDLLTHMLNGKDPETGEPLDDENIRYQIITFLIAGHETTSGLLSFALYFLVKNPHVLQKAAEEAARVLVDPVPSYKQVKQLKYVGMVLNEALRLWPTAPAFSLYAKEDTVLGGEYPLEKGDELMVLIPQLHRDKTIWGDDVEEFRPERFENPSAIPQHAFKPFGNGQRACIGQQFALHEATLVLGMMLKHFDFEDHTNYELDIKETLTLKPEGFVVKAKSKKIPLGGIPSPST
modifications: Chimeric Cytochrome P450 heme group sequence from Bacillus megaterium and Bacillus subtilis
notes: CYP102A1 heme domain with residues 46-73 from CYP102A2
Turning to B6, the Folded entry is “yes” and the “λ max for Soret band” value is reported as 448 nm.
